Test results: patent US20220233535A1, “USE OF INHIBITORS OF YAP/TAZ FOR THE TREATMENT OF CANCER” (Georgetown University, priority 2019, published 2022)
At least one compound was matched to its structure with a doubt left.

Experiments:
[1] = system: pERK (ERK phosphorylation); experiment: Western blot analysis of pERK levels in SN12C cells treated with inhibitors/compounds; format: cell-based
Method: (§1) Cells were grown for 24 hours in serum-free medium in the presence of various inhibitors unless indicated otherwise. After a brief wash with cold PBS, cells were lysed in urea buffer (9.5 M urea, 2% 3-[(3-cholamidopropyl)dimethylammonio]-1-propanesulfonate (CHAPS)), adjusted to similar concentrations, mixed with 6× sodium dodecyl sulfate (SDS) loading dye, heated at 95° C. for 10 minutes, and subjected to SDS-polyacrylamide gel electrophoresis and semi-dry transferring to polyvinylidene fluoride (PVDF) membranes. For analysis of oxidative phosphorylation (OXPHOS) complexes, 2×10^7 Ctrl and shY/T cells were harvested and either saved as whole cell extract (WCE) or processed using the Mitochondria Isolation Kit for cultured cells according to the manufacturer's instructions (Thermo Fisher Scientific). The WCE and mitochondrial-enriched fraction were resuspended in radioimmunoprecipitation assay (RIPA) buffer for western blot analysis.

[2] = system: pAKT (AKT phosphorylation); experiment: Western blot analysis of pAKT levels in SN12C cells; format: cell-based; details: Ctrl SN12C cells treated overnight
Method: as §1

[3] = system: LAMP1 (lysosomes) in shY/T SN12C cells; experiment: LAMP1 immunofluorescence staining; format: cell-based; details: RFP-labeled shY/T SN12C cells, Trametinib versus vehicle
SC4 schwannomas = experiment: Schwannoma tumor model, subcutaneous SC4 tumors; format: in vivo, SCID-Beige mice

In the case of `C=C[C@@]1(C)CC(=O)[C@]2(O)[C@@]3(C)[C@@H](O)CCC(C)(C)[C@@H]3[C@H](O)[C@H](OC(C)=O)[C@@]2(C)O1` [forskolin], the “ERK phosphorylation, tmAC activator/inhibitor alone or in combination” value ([1]; overnight, FIG. 8K) is reported as “no effect on ERK phosphorylation”.

With `CC(=O)Nc1cccc(-n2c(=O)n(C3CC3)c(=O)c3c(Nc4ccc(I)cc4F)n(C)c(=O)c(C)c32)c1` [trametinib] the “pAKT levels in Ctrl cells” value [2] was “did not reduce pAKT levels”, the “LAMP1 staining in shY/T cells” value [3] was “a significant change in LAMP1 staining following trametinib treatment in shY/T cells was not detected” and the “tumor growth, trametinib alone” value (SC4 schwannomas; shY/T SC4 tumors without Dox, trametinib o.g. 2 mg/kg, compared to Ctrl tumors) was “significantly delayed tumor growth”. The “tumor growth, Dox+trametinib (simultaneous YAP/TAZ knockdown and Mek inhibition)” value (SC4 schwannomas; shY/T SC4 tumors, Dox diet plus trametinib o.g. 2 mg/kg) was “halted tumor growth for several weeks” and the “pERK levels in shY/T cells” value ([1]; shY/T SN12C cells treated overnight, western blot) was “inhibited pERK levels”.
